The values that follow come from patent US5180716A, “Cyclodextrin complexes for neuraxial administration of drugs” (The Regents of the University of California, priority 1990, dated 1993).

Data set [1] is described as follows: in vivo. The settings on record: rat.
The conditions of data set [2]: rat, in vivo.
Data set [3] in a line: in vivo. To be noted: rat. The source holds these as a separate data set.

The structures appear in SMILES notation.

With `CN1CC[C@]23c4c5ccc(O)c4O[C@H]2[C@@H](O)C=C[C@H]3[C@H]1C5.O=S(=O)(O)O` [Morphine, morphine sulfate], the concentration at 5 min in data set [1] stood at 0.0537 µg/mL; in data set [3], 411000 µg/mL. Also, the “ordering of effects (AUC) by cyclodextrin concentration” value in data set [2] is listed as 0.02%, 20%, 0.002%, 2%, saline.
